Test results: PubChem BioAssay AID248 (DTP/NCI, 2004)
The list does not hold the whole screen: it is rich in T/C values a quarter to a half above the control, in often repeated tests (any T/C) and in doses without a T/C. Further doses and runs are listed elsewhere. T/C gives the treated animals as a percentage of the vehicle group. Some entries give survivors of the animals treated and no T/C: the source files T/C as zero there, which appears to mark a toxic dose or a test without result, not a measured value. Some survivor counts are full or nearly so, which does not show that the dose was tolerated: the source hardly ever lists a survival T/C far under the control, and the zero likely stands for such cases as well. Counts of survivors are from the toxicity check (mostly the fifth day) where no day follows; animals may have died later. Schedules are NCI's codes, taken here to give the interval after Q, in days (D) or hours (H), and the number of doses after X. Additions like (4×) give the number of equal values in this list. Some schedules carry Z or #; the key to these is not given. Some structures stand for samples that the source files as different forms (salt, stereo form or complex); doses refer to the form tested. For survival time, this PubChem deposit counts one and a half times the control or more as active, and values a quarter to a half above the control carry no call in these data; other NCI protocols may use other cut-offs. Some T/C values carry the count of animals alive at the toxicity check (mostly the fifth day); where none is given, no animal had died by that day. Some entries were tested several times; the values are given in rising order.

Tested on: L1210 leukemia ip in BDF1 mice, survival T/C
Experiment: NCI In Vivo Anticancer Drug Screen. Data for tumor model L1210 Leukemia (intraperitoneal) in B6D2F1 (BDF1) mice
Conditions: T/C endpoint: mean survival time, higher T/C = longer survival
[1] = dose: 400.0 mg/kg/injection, schedule: Q04DX003 (ip), vehicle: Klucel (hydroxypropylcellulose) (HPC)
[2] = dose: 200.0 mg/kg/injection, schedule: Q04DX003 (ip), vehicle: saline with Tween-80
[3] = dose: 400.0 mg/kg/injection, schedule: Q04DX003 (ip), vehicle: saline with Tween-80
[4] = dose: 100.0 mg/kg/injection, schedule: Q01DX009 (ip), vehicle: saline
[5] = dose: 400.0 mg/kg/injection, schedule: Q04DX002 (ip), vehicle: saline with Tween-80
[6] = dose: 200.0 mg/kg/injection, schedule: Q01DX001 (ip), vehicle: saline
[7] = dose: 400.0 mg/kg/injection, schedule: Q01DX001 (ip), vehicle: saline
[8] = dose: 100.0 mg/kg/injection, schedule: Q04DX003 (ip), vehicle: saline with Tween-80
[9] = dose: 100.0 mg/kg/injection, schedule: Q04DX003 (ip), vehicle: saline
[10] = dose: 200.0 mg/kg/injection, schedule: Q04DX003 (ip), vehicle: saline
[11] = dose: 400.0 mg/kg/injection, schedule: Q04DX003 (ip), vehicle: saline
[12] = dose: 200.0 mg/kg/injection, schedule: Q04DX003 (ip), vehicle: Klucel (hydroxypropylcellulose) (HPC)
[13] = dose: 200.0 mg/kg/injection, schedule: Q01DX009 (ip), vehicle: saline
[14] = dose: 400.0 mg/kg/injection, schedule: Q01DX009 (ip), vehicle: saline
[15] = dose: 25.0 mg/kg/injection, schedule: Q01DX009 (ip), vehicle: saline
[16] = dose: 50.0 mg/kg/injection, schedule: Q01DX009 (ip), vehicle: saline

## CC(=C/c1ccccc1)/C=N/N=C(N)N
dose: 30.0 mg/kg/injection, schedule: Q01DX Z (ip), vehicle: saline
  survivor count: 3 of 6
dose: 62.5 mg/kg/injection, schedule: Q01DX Z (ip), vehicle: saline
  survivor count: 0 of 6
dose: 125.0 mg/kg/injection, schedule: Q01DX Z (ip), vehicle: saline
  survivor count: 0 of 6
dose: 250.0 mg/kg/injection, schedule: Q01DX Z (ip), vehicle: saline
  survivor count: 0 of 6
dose: 500.0 mg/kg/injection, schedule: Q01DX Z (ip), vehicle: saline
  survivor count: 0 of 6

## CC(C)C(CCN1CCCC1)(C(N)=O)c1cccc2ccccc12 (stereo not drawn)
[1]
  survivor count: 4 of 6

## CNC(=O)Oc1c([N+](=O)[O-])cc([N+](=O)[O-])c2ccccc12
dose: 300.0 mg/kg/injection, schedule: Q01DX001 (ip), vehicle: other
  survivor count: 0 of 6

## CCOC(=O)CN=NNc1ccc(C(=O)OCC)cc1
dose: 100.0 mg/kg/injection, schedule: Q01DX009 (ip), vehicle: other
  survivor count: 3 of 6
dose: 200.0 mg/kg/injection, schedule: Q04DX003 (ip), vehicle: other
  survivor count: 3 of 6
dose: 400.0 mg/kg/injection, schedule: Q01DX001 (ip), vehicle: other
  survivor count: 2 of 6

## COc1cc2c(cc1OC)C13CCN4CC5=CCOC6CCN2C1C6C5CC43 (stereo not drawn)
[2]
  survivor count: 1 of 3
[3]
  survivor count: 0 of 3

## CC(Cc1ccccc1)NCCn1cnc2c1c(=O)n(C)c(=O)n2C (stereo not drawn)
[4]
  survivor count: 0 of 6

## COc1ccccc1NC(=S)NCc1ccco1
[5]
  survivor count: 1 of 3

## Cc1cccc(/C2=C/CCCCCC2)c1
dose: 340.0 mg/kg/injection, schedule: Q01DX009 (ip), vehicle: acetone
  survivor count: 0 of 6

## CSc1ccccc1C[P+](c1ccccc1)(c1ccccc1)c1ccccc1
dose: 25.0 mg/kg/injection, schedule: Q01DX009 (ip), vehicle: saline with Tween-80
  survivor count: 6 of 6
dose: 50.0 mg/kg/injection, schedule: Q01DX009 (ip), vehicle: saline with Tween-80
  survivor count: 0 of 6
dose: 100.0 mg/kg/injection, schedule: Q01DX009 (ip), vehicle: saline with Tween-80
  survivor count: 0 of 6

## C/C=C/C(OCC)OCC
dose: 200.0 mg/kg/injection, schedule: Q01DX009 (ip), vehicle: water
  survivor count: 0 of 6
dose: 400.0 mg/kg/injection, schedule: Q01DX009 (ip), vehicle: water
  survivor count: 0 of 6

## OCC#CC(O)c1ccccc1 (stereo not drawn)
dose: 25.0 mg/kg/injection, schedule: Q04DX003 (ip), vehicle: acetone
  survivor count: 6 of 6
dose: 100.0 mg/kg/injection, schedule: Q01DX001 (ip), vehicle: saline
  survivor count: 2 of 6
dose: 170.0 mg/kg/injection, schedule: Q01DX009 (ip), vehicle: saline
  survivor count: 1 of 6
[6]
  survivor count: 2 of 6
[7]
  survivor count: 0 of 6

## CCOC(=O)CNc1ccc(Br)cc1
dose: 400.0 mg/kg/injection, schedule: Q04DX002 (ip), vehicle: Klucel (hydroxypropylcellulose) (HPC)
  survivor count: 0 of 3

## CN(C)CCCNc1c2ccccc2nc2ccccc12
dose: 80.0 mg/kg/injection, schedule: Q01DX001 (ip), vehicle: saline
  survivor count: 3 of 4

## CCc1cc2c(cc1C(=O)/C=C\c1cccc3ccccc13)C(C)(C)CCC2(C)C
dose: 50.0 mg/kg/injection, schedule: Q04DX002 (ip), vehicle: saline with Tween-80
  survivor count: 3 of 3
dose: 200.0 mg/kg/injection, schedule: Q04DX002 (ip), vehicle: saline with Tween-80
  survivor count: 3 of 3
[5]
  survivor count: 3 of 3

## O=C(Oc1c(Cl)c(Cl)c(Cl)c(Cl)c1Cl)c1cc(Cl)cc(Cl)c1Br
[2]
  survivor count: 0 of 6
[3]
  survivor count: 0 of 6

## CC(N)CCc1ccccc1 (stereo not drawn)
[8]
  survivor count: 1 of 6
[9]
  survivor count: 1 of 6
[6]
  survivor count: 1 of 6
[2]
  survivor count: 1 of 6
[10]
  survivor count: 0 of 6
[7]
  survivor count: 0 of 6
[11]
  survivor count: 0 of 6

## Cc1nccc2c(C)c3c(cc12)c1ccccc1n3CC1CO1 (stereo not drawn)
dose: 9.37 mg/kg/injection, schedule: Q01DX009 (ip), vehicle: saline with Tween-80
  T/C: 130 % of control
dose: 75.0 mg/kg/injection, schedule: Q04DX003 (ip), vehicle: saline with Tween-80
  T/C: 137 % of control
dose: 150.0 mg/kg/injection, schedule: Q01DX009 (ip), vehicle: saline with Tween-80
  survivor count: 8 of 10
dose: 300.0 mg/kg/injection, schedule: Q04DX003 (ip), vehicle: saline with Tween-80
  survivor count: 2 of 10

## O=C(NC(=S)Nc1ccc(F)cc1)c1ccccc1F
dose: 200.0 mg/kg/injection, schedule: Q01DX009 (ip), vehicle: gum acacia
  survivor count: 3 of 6
dose: 400.0 mg/kg/injection, schedule: Q01DX009 (ip), vehicle: gum acacia
  survivor count: 0 of 6

## Cn1c(N)c(C=O)c(=O)n(C)c1=O
dose: 100.0 mg/kg/injection, schedule: Q04DX003 (ip), vehicle: Klucel (hydroxypropylcellulose) (HPC)
  survivor count: 0 of 6
[12]
  survivor count: 0 of 6
[1]
  survivor count: 0 of 6

## CCCCCCCCCCCCCCCCCC1=NCC[N+]1(CCO)Cc1ccccc1 (stereo not drawn) (tested in a mixture with another compound)
dose: 50.0 mg/kg/injection, schedule: Q04DX003 (ip), vehicle: saline with Tween-80
  survivor count: 2 of 6
[8]
  survivor count: 0 of 6
[2]
  survivor count: 0 of 6
[3]
  survivor count: 0 of 6

## CC(C)(C)NC1=NCCO1
[2]
  survivor count: 2 of 6
[3]
  survivor count: 0 of 6

## CC[N+](C)(CC)CCCOC(=O)C(c1ccccc1)c1ccccc1
[9]
  survivor count: 1 of 6
[10]
  survivor count: 0 of 6
[11]
  survivor count: 0 of 6

## CN1C2CCC1CN(Cc1ccccc1)C2
[9]
  survivor count: 1 of 6
[10]
  survivor count: 0 of 6
[11]
  survivor count: 0 of 6

## O=C(CCCCCCC(=O)C[n+]1ccccc1CO)C[n+]1ccccc1CO
dose: 25.0 mg/kg/injection, schedule: Q04DX003 (ip), vehicle: saline
  survivor count: 0 of 6
dose: 50.0 mg/kg/injection, schedule: Q04DX003 (ip), vehicle: saline
  survivor count: 0 of 6
[9]
  survivor count: 0 of 6
[10]
  survivor count: 0 of 6
[11]
  survivor count: 0 of 6

## Nc1ccc2ccc(O)cc2c1
[4]
  survivor count: 3 of 6
[9]
  T/C: 144 % of control [5 of 6 alive]
[13]
  survivor count: 3 of 6
[14]
  survivor count: 0 of 6
[11]
  survivor count: 0 of 6

## CCOC(=O)C(C(C)=O)C(c1ccc([N+](=O)[O-])cc1)C(C(C)=O)C(=O)OCC (stereo not drawn)
dose: 6.25 mg/kg/injection, schedule: Q01DX009 (ip), vehicle: saline
  survivor count: 6 of 6
dose: 12.5 mg/kg/injection, schedule: Q01DX009 (ip), vehicle: saline
  survivor count: 5 of 6
[15]
  survivor count: 6 of 6 (2×)
[16]
  survivor count: 6 of 6 (2×)
[4]
  survivor count: 6 of 6 (2×)
[13]
  survivor count: 6 of 6
[14]
  survivor count: 6 of 6

## O=C(O)c1cc2c(Br)cccc2c2cc(C(F)(F)F)ccc12
[3]
  survivor count: 0 of 6

## NC(CSCc1ccccc1)C(=O)O (stereo not drawn)
dose: 400.0 mg/kg/injection, schedule: Q01DX001 (ip), vehicle: carboxymethylcellulose (CMC)
  survivor count: 2 of 4
dose: 466.0 mg/kg/injection, schedule: Q01DX015 (ip), vehicle: saline
  survivor count: 2 of 6

## O=C(O)c1ccccc1NC(=O)C(F)(F)F
[12]
  survivor count: 3 of 6
[1]
  survivor count: 0 of 6

## CCCCOC(=O)CCCc1ccc(N(CCCl)CCCl)cc1
[15]
  T/C: 135 % of control (2×)
[16]
  T/C: 125 [9 of 10 alive] and 144 % of control
[4]
  T/C: 130 % of control
  survivor count: 3 of 6
[13]
  survivor count: 0 of 6
[14]
  survivor count: 0 of 6
